± gives the standard deviation. Only a part is listed here, and it is no random draw. The uncertainty is large for many entries.

The assay has as its system MIWI (PIWIL1) piRISC loaded with Kctd7 piRNA (30 nt). As to the kind of experiment: pre-steady-state target cleavage rate (min^-1); MIWI and MILI are mouse PIWI proteins and EfPiwi is from a freshwater sponge; tags in brackets are library labels; higher = faster piRNA-guided slicing of the target. The following applies: guide: Kctd7 piRNA 5'p-UGUUAAUCUCUCAGAGAAGGUGACAGUGAU; auxiliary factor: 500 nM mouse GTSF1. On the procedure:
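Cleave-'n-Seq: a library of target RNAs (target site embedded in constant flanks, ACAGCATTCCGCGTTAGTGATATCCG... 5' flank; DNA-blocked outside the site) at 0.1 nM was incubated with 1 nM active mouse MILI or MIWI piRISC (synthetic 5'-monophosphorylated piRNA guide) with or without 500 nM mouse GTSF1 at 33 °C for 1 min to 16 h. Uncleaved targets were sequenced and normalised to non-target controls, and the pooled three trials were fitted to a burst-and-steady-state model to give the pre-steady-state cleavage rate (min^-1; k3 is constrained to at most 1e-4). Sequence is the target site only; target names encode pairing extent (gX:gY) and contiguous / 1-mismatch / 2-mismatch / bulge geometry. Fits with R² ≤ 0 are excluded.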
On to UAGUGACACACCUUCUCUGAGACAUUAUCA, for which the “pre-steady-state target cleavage rate” value was determined as 0.00257 ± 0.0035.
Take UAGAGUGUCACCUUCUCUGAGAGAUUAACA: the “pre-steady-state target cleavage rate” value is 0.72 ± 0.035.
Regarding UAGACUGUCACCUUCUCUCUCAGAUUAACA, the “pre-steady-state target cleavage rate” value was 0.000632 ± 0.0055.
Under UACACUGUGUGCUUCUCUGAGAGAUUAUGA stands 0.000632 ± 0.01.
Under UAGUGACAGUGCUGCUCUGAGAGAUUAACA stands 0.00147 ± 0.0029.
As for UAGUGACAGACCUUCUCUGACUGAUUAACA, the “pre-steady-state target cleavage rate” value is 0.000555 ± 0.012.
Turning to UAGUGACUCACCCUCUCUGAGAGAUUAACA, the “pre-steady-state target cleavage rate” value was found to be 0.415 ± 0.045.
Under “UAGUGACUCACCUUCUCUGAGAGAUUAACC [g2:g23:cont:t1C]” stands 0.303 ± 0.032.
On to UAGUGACAGUGCUUGUCUGAGAGAUAAACA, for which the “pre-steady-state target cleavage rate” value is 0.00155 ± 0.0059.
Under UACACUGUCACCUUCUCACUGAGAUUAUGA stands 0.00129 ± 0.012; under UAGUGACAGUGCUUCUCUUGAGAGAUUAACA, 0.000327 ± 0.019; under UAGUGACAGACCUUCUCUGAGACUUUAUGA, 0.000476 ± 0.015.
Under UAGUGACAGUCCUACUCUGAGAGAUAAACA stands 0.00262 ± 0.0029; under “UAGUGUGUCACCUUCUCUGUCUCUAAUUGA [g12:g25:cont:t1A]”, 0.00217 ± 0.006.
Under UAGUGACAGACCUUGUCUGAGAGAUUUUGA stands 0.000909 ± 0.01; under UAGUGUGUCACCUUCUCUGUCAGAUUAAGA, 0.000257 ± 0.03.
For the sequence UAGUGACAGACCUUCUCAGACAGAUUAACA, the “pre-steady-state target cleavage rate” value stood at 0.00229 ± 0.0059.
With UUCACUGUCACCAUCUCUGAGAGAUUAACA, the “pre-steady-state target cleavage rate” value was found to be 0.738 ± 0.029.
Under UAGUGACACACCUUCUCUCAGAGAAUAACA stands 0.00392 ± 0.004; under UAGUGACAGUGCUUGUCUGAGAGAUUAUCA, 0.00134 ± 0.0078.
Under AUCACUGUCACCUUCUCACUGAGAUUUUGA stands 0.00308 ± 0.0052.
On to UAGUGACAGAGGUUCUCUGAGAGAUUAACA, for which the “pre-steady-state target cleavage rate” value was found to be 0.000644 ± 0.0053.
Under UAGUGACAGUGCAUCUCUCAGAGAUUAACA stands 0.000646 ± 0.011; under UAGUGACAGUGCAUCUCUGAGAGUUUAACA, 0.00137 ± 0.0049; under UACACUGUCACCUUCUGACAGAGAUUAUGA, 0.00107 ± 0.0092.
Under UAGACUGUCACCUUCUCUGUGAGAUUUUGA stands 0.0048 ± 0.0033.
UAGUGUGAGUCCUUCUCUGAGAGAUUUUGA: the “pre-steady-state target cleavage rate” value came out at 0.00289 ± 0.0033.
On to UAGUGACACACCUUCUCUGACAGAUUAUGA, for which the “pre-steady-state target cleavage rate” value came out at 0.000848 ± 0.0093.
UAGACUGAGUCCUUCUCUGAGAGAUAUUGA: the “pre-steady-state target cleavage rate” value turned out to be 0.000514 ± 0.0097.
Under UAGUGAGUCACCUUCUCUGACUGAUUUUGA stands 0.000797 ± 0.0099.
As to UUCACUGUCACCUUCUCUGAAGAGAUUAACA, the “pre-steady-state target cleavage rate” value is 0.019 ± 0.0081.
For the sequence UAGUGACAGACCUUCUCUGAGAGUAUAUGA, the “pre-steady-state target cleavage rate” value was determined as 0.000876 ± 0.0081.
For UAGUGACAGACCUACUCUGAGUGAUUAACA, the “pre-steady-state target cleavage rate” value was 0.00345 ± 0.004.
Take UAGUGUGUCACGAACUCUGAGAGAUUUUGA: the “pre-steady-state target cleavage rate” value was found to be 0.000136 ± 0.036.
Turning to AUCACUGUCUGCUUCUCUGAGAGAUUAACA, the “pre-steady-state target cleavage rate” value turned out to be 0.74 ± 0.042.
Under UACACUGUGUGCUUCUCUGAGAGAUAUUGA stands 0.000181 ± 0.027.
For the sequence UAGUGACAGUGGAAGACUGAGUCAUUAACA, the “pre-steady-state target cleavage rate” value was determined as 0.000193 ± 0.016.
Under UACACUGUCACCUUGAGUGAGAGAUUAACA stands 0.0042 ± 0.0057; under UAGUGACACACCUUCUCACAGAGAUUUUGA, 0.000673 ± 0.015.
Under “UAGUGACAGUGGAAGAGACUCAGAUUAACC [g2:g9:cont:t1C]” stands 0.000695 ± 0.0077.
Under UAGUGACUCACCUUCUCUCUGAGAUUUUGA stands 0.000489 ± 0.018.
As to UAGUGACACAGGAUCUCUGAGAGAUUAAGA, the “pre-steady-state target cleavage rate” value is 0.000169 ± 0.027.
Under UAGUGACAGACCUACUCUCAGAGAUUAACA stands 0.0013 ± 0.0089; under UAGUCUGUCACCUUCUCUGUCUGAUUAAGA, 0.00385 ± 0.0059; under UAGUGACUCACCUUCUCUGAGAGAAAUAGA, 0.00273 ± 0.004.
As for UAGUGACAGUGGAAGAGACACUCAUUAACA, the “pre-steady-state target cleavage rate” value was determined as 0.000186 ± 0.017.
Under UAGACUGUCACCUUCUCUGAGACAUAUUGA stands 0.000412 ± 0.0095; under UAGUGACAGUGGAAGAGAGAAGAUUAACA, 0.000145 ± 0.026; under UAGUGACAGACCUUGUCUGAGAGAAUAACA, 0.00181 ± 0.0057.
Under UAGUGACAGUGCUUCUGUGAGAGAUUUACA stands 0.00329 ± 0.0039; under UUCACUAGUCACCUUCUCUGAGAGAUUAACA, 0.708 ± 0.032.
Under UAGAGUGUCACCUUCUCUGAGAGAUAAACA stands 0.362 ± 0.038.
For the sequence UAGUGACACACCUUGACUGAGAGAUUAUGA, the “pre-steady-state target cleavage rate” value came out at 0.000605 ± 0.018.
Under UAGACUGUCACCUUCUCUCUGAGAUUAUGA stands 0.00052 ± 0.012; under UAGUCUGUCUCCUUCUGUGAGAGAUUAACA, 0.536 ± 0.028; under UAGUGACAGACCUUCUCUGAGUGAAUAACA, 0.0014 ± 0.0076.
Consider UACACUGUCACCUUCUCUGACUCAUUAUGA, for which the “pre-steady-state target cleavage rate” value is 0.0018 ± 0.0039.
For UAGACAGUCACCAUCUCUGAGAGAUUAACA, the “pre-steady-state target cleavage rate” value turned out to be 0.68 ± 0.042.
UAGUGUGUCACCUUCUGAGAGAGAUAUUGA: the “pre-steady-state target cleavage rate” value is 0.00238 ± 0.0074.
Consider UACACUGUCACCUUCUCUGUCAGAUUAUGA, for which the “pre-steady-state target cleavage rate” value stood at 0.00355 ± 0.0078.
In the case of UAGUGACAGUGCUUCUCUGAGAGUUUAACA, the “pre-steady-state target cleavage rate” value is 0.00896 ± 0.0024.
Turning to UAGACUGUCACCAUCUCUGAGAGAUUAACA, the “pre-steady-state target cleavage rate” value amounted to 0.741 ± 0.052.
Under UAGUCUGUCACCUUCUCACAGAGAUUUUGA stands 0.003 ± 0.0049; under UAGUGACAGACCUUCUCUGACAGAUUAAGA, 0.00115 ± 0.0075; under UAGUGACAGACCUUCUCUGACGAGAUUAACA, 0.00201 ± 0.0044.
Regarding UAGUGACAGACCAUCUCUCAGAGAUUAACA, the “pre-steady-state target cleavage rate” value is 0.00139 ± 0.0074.
Under UACACUGACACCUUCUCUGAGAGAUUUUGA stands 0.0697 ± 0.019.
For UAGUGACAGUCCUUCUGCUGAGAGAUUAACA, the “pre-steady-state target cleavage rate” value came to 0.000385 ± 0.017.
Regarding UAGUCUGUCACCUUCUCUGACUGAUAUUGA, the “pre-steady-state target cleavage rate” value stood at 0.000857 ± 0.008.
Take UAGUGACAGUGCUUCUCUGUGAGUUUAACA: the “pre-steady-state target cleavage rate” value worked out at 0.00115 ± 0.0062.
On to UAGUGACAGUCCUUCUCUAGAGAGAUUAACA, for which the “pre-steady-state target cleavage rate” value stood at 0.000681 ± 0.011.
Under UAGUGACUCACCUUCUCUGACUGAUUAAGA stands 0.000142 ± 0.028.

These data come from the supplement of paper PMC10338343.
